{
  "sequences": {"note": "Protein sequences, listed by entry. Tags and fused reporters are not part of them.", "UniProt P32121": "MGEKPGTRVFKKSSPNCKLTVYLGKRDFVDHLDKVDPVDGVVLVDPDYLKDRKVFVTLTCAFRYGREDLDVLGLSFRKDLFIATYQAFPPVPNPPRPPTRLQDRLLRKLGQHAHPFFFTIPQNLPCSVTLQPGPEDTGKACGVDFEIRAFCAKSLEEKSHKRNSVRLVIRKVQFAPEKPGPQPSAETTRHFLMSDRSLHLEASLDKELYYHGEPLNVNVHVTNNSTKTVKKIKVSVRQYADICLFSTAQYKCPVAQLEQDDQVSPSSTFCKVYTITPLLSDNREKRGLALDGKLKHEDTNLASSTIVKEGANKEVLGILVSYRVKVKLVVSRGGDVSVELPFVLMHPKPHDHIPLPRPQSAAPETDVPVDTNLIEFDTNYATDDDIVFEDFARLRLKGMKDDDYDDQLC"},
  "source": "paper doi:10.1101/2025.02.13.638052",
  "biological_target": "T1, human FSHR C-terminally fused to the luciferase from the sea pansy Renilla reniformis (FSHR-RLuc8) (human) (UniProt P23945)",
  "T1 sequence": "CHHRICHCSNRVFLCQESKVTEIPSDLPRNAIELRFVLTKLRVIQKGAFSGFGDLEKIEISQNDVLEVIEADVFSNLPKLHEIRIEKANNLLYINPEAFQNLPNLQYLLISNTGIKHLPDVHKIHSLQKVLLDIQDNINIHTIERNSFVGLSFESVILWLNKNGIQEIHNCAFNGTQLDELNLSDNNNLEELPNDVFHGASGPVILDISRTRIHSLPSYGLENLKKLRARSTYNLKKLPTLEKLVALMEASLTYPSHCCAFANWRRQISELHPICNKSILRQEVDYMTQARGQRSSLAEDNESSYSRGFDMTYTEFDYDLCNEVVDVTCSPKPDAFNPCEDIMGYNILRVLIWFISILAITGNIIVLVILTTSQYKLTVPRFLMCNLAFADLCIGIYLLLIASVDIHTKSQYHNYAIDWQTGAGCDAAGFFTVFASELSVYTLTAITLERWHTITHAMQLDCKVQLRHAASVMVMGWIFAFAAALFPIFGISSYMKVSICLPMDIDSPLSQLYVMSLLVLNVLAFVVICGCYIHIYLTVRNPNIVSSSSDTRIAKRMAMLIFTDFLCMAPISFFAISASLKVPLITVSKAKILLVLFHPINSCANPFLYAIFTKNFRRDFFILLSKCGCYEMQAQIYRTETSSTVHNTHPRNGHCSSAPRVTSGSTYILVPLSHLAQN",
  "assay": "FRET or BRET",
  "note": "Results are given in words; binding and its absence hold for the method and conditions named. Binding seen in cells or lysates may run through a third protein. Some entries that bind do so weakly or less than the wild type. Sequences can lack the tags named with a protein.",
  "data": [
    {"substance": "Ypet-β-arrestin 2 (from UniProt P32121 1-409)", "values": [
      {"measurement": "binding", "result": "binds"}
    ]}
  ]
}
